# Measurements from patent US10434116B2 (priority 2014, dated 2019).
# Where a name gives a salt, the structure may show the parent alone. Some results were stated once for a whole list of compounds, not compound by compound.
# Test system: MERS-CoV
# Format: cell-based, MERS-CoV strain Hu/Jordan-N3/2012
row,Structure (SMILES),inhibition of MERS-CoV
1,CN(C)CCCN1c2ccccc2Sc2ccc(C(F)(F)F)cc21 [Triflupromazine hydrochloride],over 50%
2,CN(C)CCCN1c2ccccc2Sc2ccc(Cl)cc21 [Chlorpromazine hydrochloride],over 50%
